Measurements reported in patent EP1352977A2, “Novel Desulfitobacterium strain for the degradation of chloroalkenes” (UNIVERSITEIT GENT, priority 2002, dated 2003).
At least one structure is not confirmed: it was looked up by name or label, or the drawing left a doubt.

Each compound was assayed on Desulfitobacterium strain DCA1 (assay: Substrate range determination: growth on and dechlorination product from chlorinated substrates). Conditions: not given.
Assay type: cell-based, Desulfitobacterium dichloroeliminans strain DCA1
For `ClC(Cl)C(Cl)Cl` [1,1,2,2-TeCA], the Growth was “-”.
For `ClCC(Cl)Cl` [1,1,2-TCA, 1,1,2-trichloroethane], the Growth was “+”.
With `ClC=C(Cl)Cl` [1,1,2-TCE, trichloroethene] the Growth was “-”.
`CC(Br)CBr` (stereo not drawn) [1,2-dibromopropane] was tested, and the Growth was “+”.
With `CC(Cl)CCl` (stereo not drawn) [1,2-dichloropropane] the Growth was “+”.
With `OCC(Cl)CCl` (stereo not drawn) [2,3-DC-propanol] the Growth was “-”.
In the case of `Oc1ccc(Cl)cc1Cl` [2,4-DCP], the Growth was “-”.
`O=C(O)Cc1ccc(O)c(Cl)c1` [3-CI-4-hydroxyphenylacetate] was tested, and the Growth was “-”.
`C=CCl` [VC, vinylchloride] was tested, and the Growth was “-”.
`Cl[C@@H]1CCCC[C@H]1Cl` [trans-1,2-DC-cyclohexane] was tested, and the Growth was “-”.

Same assay, conditions: substrate concentration 400 µM
With `CC(Cl)C(C)Cl` [D-2,3-DCB, D-2,3-dichlorobutane] the Growth was “-”.
For `CC(Cl)C(C)Cl` [L-2,3-DCB, L-2,3-dichlorobutane], the Growth was “+”.
With `Cl/C=C\Cl` [cis-DCE] the Growth was “-”.
For `C[C@H](Cl)[C@@H](C)Cl` [meso-2,3-DCB, meso-2,3-dichlorobutane], the Growth was “+”.
In the case of `Cl/C=C/Cl` [trans-DCE], the Growth was “-”.
